The text below walks through data of paper PMC8004969.

Common to all, as to assay: SEC; Superdex 200 10/300 GL, 20 mM Tris-HCl buffer (pH 6.8 or 8.0), no salt, 0.5 mL/min; 75-100 µg ALOX protein in 100 µL (10-13 µM); hydrodynamic radius estimated with calibration proteins; self-association, monomer against dimer; both purified
Test [1] has as its target wild-type rabbit ALOX15 (rabbit) (UniProt P12530).
The target in test [2] is rabbit ALOX15 His585Lys mutant (rabbit) (UniProt P12530).
Test [3] has as its target rabbit ALOX15 His585Glu mutant (rabbit) (UniProt P12530).

Where a chain is given by its changes, count along the chain named. Results are given in words; binding and its absence hold for the method and conditions named. For part of these data: Where a sequence is shown, tags or fusion partners need not be part of it.

B1: wild-type rabbit ALOX15 (enzyme, UniProt P12530 2-663)
chain: GVYRVCVSTGASIYAGSKNKVELWLVGQHGEVELGSCLRPTRNKEEEFKVNVSKYLGSLLFVRLRKKHFLKEDAWFCNWISVQALGAAEDKYWFPCYRWVVGDGVQSLPVGTGCTTVGDPQGLFQKHREQELEERRKLYQWGSWKEGLILNVAGSKLTDLPVDERFLEDKKIDFEASLAWGLAELALKNSLNILAPWKTLDDFNRIFWCGRSKLARRVRDSWQEDSLFGYQFLNGANPMLLRRSVQLPARLVFPPGMEELQAQLEKELKAGTLFEADFALLDNIKANVILYCQQYLAAPLVMLKLQPDGKLMPMVIQLHLPKIGSSPPPLFLPTDPPMVWLLAKCWVRSSDFQVHELNSHLLRGHLMAEVFTVATMRCLPSIHPVFKLIVPHLRYTLEINVRARNGLVSDFGIFDQIMSTGGGGHVQLLQQAGAFLTYRSFCPPDDLADRGLLGVESSFYAQDALRLWEIISRYVQGIMGLYYKTDEAVRDDLELQSWCREITEIGLQGAQKQGFPTSLQSVAQACHFVTMCIFTCTGQHSSIHLGQLDWFTWVPNAPCTMRLPPPTTKDATLETVMATLPNLHQSSLQMSIVWQLGRDQPIMVPLGQHQEEYFSGPEPRAVLEKFREELAIMDKEIEVRNEKLDIPYEYLRPSIVENSVAI
As to B1, the binding entry in test [1] is “no binding (tested: 10–13 µM)”.

B2: rabbit ALOX15 His585Lys mutant (enzyme, UniProt P12530 2-663)
chain: B1 chain with H584K
In the case of B2, the binding result in test [2] was “no binding (tested: 10–13 µM)”.

B3: rabbit ALOX15 His585Glu mutant (enzyme, UniProt P12530 2-663)
chain: B1 chain with H584E
B3: the binding result in test [3] is listed as “no binding (tested: 10–13 µM)”.
